Values from PubChem BioAssay AID504774 (Drosophila RNAi Screening Center, 2011).
In all, the deposit lists about 23,000 reagents; shown is a random part of those that have a named target and a result. 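Values are quantile-normalised luminescence on an arbitrary scale; higher means more cells surviving MMS.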 Further read-outs or replicates are left out here.

Screen: 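Knock-downs that shift viability of MMS-exposed cells relative to untreated ones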 (primary screen)
Cell system: Drosophila Kc167 cells
Knock-down reagent: long dsRNA against Drosophila genes, about 0.25 µg dsRNA per well
Time to read-out: about 6 days: 3 days knock-down, then 3 days with or without MMS
Challenge: methyl methanesulphonate 0.004% (w/v) for 3 days after knock-down
Measured: 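ATP-dependent luminescence as a measure of live cells in MMS-exposed wells, quantile normalised within each plate, with replicate values also given as a mean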
Scale: mean viability with MMS: higher = more surviving cells after MMS

Knock-down of Med (Medea) [DRSC16737] gave: mean viability with MMS 3.05e6.
For CG7402 [DRSC10839] the deposit lists mean viability with MMS 3.50e6.
With knock-down of CG5958 [DRSC02915], the record shows mean viability with MMS 3.40e6.
pgc (polar granule component) [DRSC04099] gave mean viability with MMS 3.39e6.
For mahe (maheshvara) [DRSC17755] the deposit lists mean viability with MMS 3.52e6.
With knock-down of CG31230 [DRSC22130] the results were mean viability with MMS 3.55e6.
Against Tep5Psi (Thioester-containing protein 5 pseudogene) [DRSC02183] the deposit lists mean viability with MMS 3.53e6.
Against Tep5Psi (Thioester-containing protein 5 pseudogene) [DRSC02184] the deposit lists mean viability with MMS 3.57e6.
Depletion of CG13748 [DRSC06419] gave: mean viability with MMS 3.64e6.
Against CG2921 [DRSC04324], the entry reads mean viability with MMS 3.51e6.
Against Efhc1.1 (EF-hand domain containing 1.1) [DRSC20135] the deposit lists mean viability with MMS 3.59e6.
For CG5849 [DRSC15893] the deposit lists mean viability with MMS 3.69e6.
Knock-down of Rca1 (Regulator of cyclin A1) [DRSC03407] came out at: mean viability with MMS 3.15e6.
For CG3902 [DRSC10387], the entry reads mean viability with MMS 3.35e6.
Depletion of Cyp308a1 (Cytochrome P450 308a1) [DRSC20238] resulted in: mean viability with MMS 3.46e6.
Depletion of stv (starvin) [DRSC09796] came out at: mean viability with MMS 3.44e6.
stv (starvin) [DRSC10111] gave mean viability with MMS 3.44e6.
Hr78 (Hormone-receptor-like in 78) [DRSC11866] gave mean viability with MMS 3.54e6.
For Him (Holes in muscle) [DRSC19638], the entry reads mean viability with MMS 3.49e6.
Depletion of CG15615 [DRSC06568] gave: mean viability with MMS 3.48e6.
NetA (Netrin-A) [DRSC20261] gave mean viability with MMS 3.52e6.
With knock-down of CheB74a (Chemosensory protein B 74a) [DRSC09503], the record shows mean viability with MMS 3.48e6.
Mesh1 (Metazoan SpoT homolog-1) [DRSC14433] scored mean viability with MMS 3.49e6.
Cpr65Ay (Cuticular protein 65Ay) [DRSC08796] gave mean viability with MMS 3.43e6.
With knock-down of E5 [DRSC13000] the results were mean viability with MMS 3.26e6.
Depletion of E5 [DRSC16585] gave: mean viability with MMS 2.59e6.
Knock-down of E5 [DRSC23157] gave: mean viability with MMS 3.40e6.
CG12290 [DRSC14497] scored mean viability with MMS 3.67e6.
Against CG15042 [DRSC19618], the values are mean viability with MMS 3.36e6.
After knock-down of Fer2LCH (Ferritin 2 light chain homologue) [DRSC16672], the record shows mean viability with MMS 3.91e6.
Silencing of SIFa (SIFamide) [DRSC04480] gave: mean viability with MMS 3.52e6.
With knock-down of Baldspot [DRSC09671], the record shows mean viability with MMS 3.79e6.
Against Suv3 (Suv3 helicase) [DRSC12335] the deposit lists mean viability with MMS 3.67e6.
Cdk9 (Cyclin-dependent kinase 9) [DRSC04601] showed mean viability with MMS 3.27e6.
CG3517 [DRSC15492] gave mean viability with MMS 3.38e6.
For CG42531 [DRSC05318], the values are mean viability with MMS 3.75e6.
Depletion of CG33768 [DRSC11715] came out at: mean viability with MMS 3.39e6.
Depletion of CG8785 [DRSC07266] resulted in: mean viability with MMS 3.41e6.
Knock-down of dgt6 (dim gamma-tubulin 6) [DRSC14424] gave: mean viability with MMS 3.57e6.
For TotC (Turandot C) [DRSC13449], the entry reads mean viability with MMS 3.64e6.
For Polr3I (RNA polymerase III subunit I) [DRSC19922] the deposit lists mean viability with MMS 3.46e6.
Silencing of CG4496 [DRSC02753] came out at: mean viability with MMS 3.47e6.
After knock-down of CanA-14F (Calcineurin A at 14F) [DRSC20211], the record shows mean viability with MMS 3.49e6.
Against CanA-14F (Calcineurin A at 14F) [DRSC23296] the deposit lists mean viability with MMS 3.66e6.
CG11666 [DRSC22379] scored mean viability with MMS 3.45e6.

Individual results from the entries so far:
stv (starvin) [DRSC09796], mean viability with MMS = 3.44e6
Result for CG5849 [DRSC15893] under “mean viability with MMS”: 3.69e6
Entry of CG5958 [DRSC02915] in “mean viability with MMS”: 3.40e6
